Test results: article PMC12268982

Biological target: rab5 (mouse (endogenous in hippocampal synaptosomes))
Test: pull-down; GTP-agarose beads (Sigma G9768) with 200 ug of hippocampal synaptosome lysate from non-Tg or Thy1-APPL1 mice, overnight at 4°C; 50 mM Tris-HCl pH 7.5, 250 mM NaCl, 5 mM Mg acetate, 0.5% Triton X-100; three washes; blots with anti-APPL1 and anti-rab5

binding | Binder
binds | human APPL1, Flag-tagged, Thy1-APPL1 transgene (protein, UniProt Q9UKG1 1-709) MPGIDKLPIEETLEDSPQTRSLLGVFEEDATAISNYMNQLYQAMHRIYDAQNELSAATHLTSKLLKEYEKQRFPLGGDDEVMSSTLQQFSKVIDELSSCHAVLSTQLADAMMFPITQFKERDLKEILTLKEVFQIASNDHDAAINRYSRLSKKRENDKVKYEVTEDVYTSRKKQHQTMMHYFCALNTLQYKKKIALLEPLLGYMQAQISFFKMGSENLNEQLEEFLANIGTSVQNVRREMDSDIETMQQTIEDLEVASDPLYVPDPDPTKFPVNRNLTRKAGYLNARNKTGLVSSTWDRQFYFTQGGNLMSQARGDVAGGLAMDIDNCSVMAVDCEDRRYCFQITSFDGKKSSILQAESKKDHEEWICTINNISKQIYLSENPEETAARVNQSALEAVTPSPSFQQRHESLRPAAGQSRPPTARTSSSGSLGSESTNLAALSLDSLVAPDTPIQFDIISPVCEDQPGQAKAFGQGGRRTNPFGESGGSTKSETEDSILHQLFIVRFLGSMEVKSDDHPDVVYETMRQILAARAIHNIFRMTESHLLVTCDCLKLIDPQTQVTRLTFPLPCVVLYATHQENKRLFGFVLRTSSGRSESNLSSVCYIFESNNEGEKICDSVGLAKQIALHAELDRRASEKQKEIERVKEKQQKELNKQKQIEKDLEEQSRLIAASSRPNQASSEGQFVVLSSSQSEESDLGEGGKKRESEA
binds | APPL1 (Adaptor Protein containing Pleckstrin homology domain, Phosphotyrosine binding domain, and Leucine zipper motif) (protein, UniProt Q8K3H0 1-707) MPGIDKLPIEETLEDSPQTRSLLGVFEEDATAISNYMNQLYQAMHRIYDAQNELSAATHLTSKLLKEYEKQRFPLGGDDEVMSSTLQQFSKVIDELSSCHAVLSTQLADAMMFPISQFKERDLKEILTLKEVFQIASNDHDAAINRYSRLSKKRENDKVKYEVTEDVYTSRKKQHQTMMHYFCALNTLQYKKKIALLEPLLGYMQAQISFFKMGSENLNGQLEEFLANIGTSVQNVRREMDGDVETMQQTIEDLEVASDPLYLPDPDPTKFPINRNLTRKAGYLNARNKTGLVSSTWDRQFYFTQGGNLMSQARGDVAGGLAMDIDNCSVMAVDCEDRRYCFQITSFDGKKSSILQAESKKDHEEWICTINNISKQIYLSENPEETAARVNQSALEAVTPSPSFQQRHESLRPGGQSRPPTARTSSSGSLGSESTNLAALSLDSLVAPDTPIQFDIISPVCEDQPGQAKAFGQGGRRTNPFGESGGSTKSETEDSILHQLFIVRFLGSMEVKSDDHPDVVYETMRQILAARAIHNIFRMTESHLLVTCDCLKLIDPQTQVTRLTFPLPCVVLYATHQENKRLFGFVLRTSGGRSESNLSSVCYIFESNNEGEKICDSVGLAKQIALHAELDRRASEKQKEIERVKEKQQKELSKQKQIEKDLEEQSRLIAASSRPNQAGSEGQLVLSSSQSEESDLGEEGKKRESEA

These are yes or no findings as the source states them, for the method shown. Binding seen in cells or lysates may run through a third protein. A result given as binding can be weak or reduced; the word gives no strength. Tags and fused reporters may be left off the sequences shown.
